Experimental data from publication PMC8501799, “Constitutive signal bias mediated by the human GHRHR splice variant 1” (Proceedings of the National Academy of Sciences of the …, 2021).
Substitutions are numbered along the chain they refer to. These are yes or no findings as the source states them, for the method shown. Binding seen in cells or lysates may run through a third protein. Some binding calls cover weakened binding; strength is not graded here. For some assays here: Where a sequence is shown, tags or fusion partners need not be part of it.

Amino acid sequences for entries named in this document (tags omitted).
UniProt P49407: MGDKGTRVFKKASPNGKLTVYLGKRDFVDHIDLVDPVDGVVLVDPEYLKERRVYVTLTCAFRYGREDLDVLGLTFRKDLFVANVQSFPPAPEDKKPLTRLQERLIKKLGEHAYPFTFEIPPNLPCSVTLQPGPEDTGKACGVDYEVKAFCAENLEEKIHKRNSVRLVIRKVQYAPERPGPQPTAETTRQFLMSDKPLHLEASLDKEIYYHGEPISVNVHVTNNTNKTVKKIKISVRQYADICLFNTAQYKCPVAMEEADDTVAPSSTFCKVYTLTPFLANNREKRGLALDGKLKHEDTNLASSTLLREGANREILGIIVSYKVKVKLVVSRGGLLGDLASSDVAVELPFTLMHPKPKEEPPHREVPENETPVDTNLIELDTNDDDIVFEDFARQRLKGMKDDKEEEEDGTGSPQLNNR

Assays:
Experiment in all cases: FRET or BRET; β-arrestin 1/2 recruitment assay in live HEK293T cells co-transfected with receptor-Rluc8 and β-arrestin 1/2-Venus (1:9 mass ratio); coelenterazine h; started with 250 μM GHRH; AUC of the BRET time course (535 nm/470 nm) normalised to WT GHRHR = 100%
[1] = biological target: T1, HA-Flag-GHRHR-Rluc8 (human) (UniProt Q02643)
T1 sequence: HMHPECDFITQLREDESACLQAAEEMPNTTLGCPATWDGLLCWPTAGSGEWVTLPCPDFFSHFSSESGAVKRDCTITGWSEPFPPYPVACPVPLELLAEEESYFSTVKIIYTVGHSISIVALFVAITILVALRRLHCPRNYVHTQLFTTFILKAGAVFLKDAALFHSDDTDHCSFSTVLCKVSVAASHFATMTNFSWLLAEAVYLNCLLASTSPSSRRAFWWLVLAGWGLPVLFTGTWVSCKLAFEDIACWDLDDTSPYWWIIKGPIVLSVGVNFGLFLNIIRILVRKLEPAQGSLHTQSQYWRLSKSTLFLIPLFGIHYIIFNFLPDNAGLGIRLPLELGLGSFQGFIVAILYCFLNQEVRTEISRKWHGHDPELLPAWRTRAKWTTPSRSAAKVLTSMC

GHRHR D274A (human) = biological target: T2, GHRHR D274A (human) (UniProt Q02643)
T2 sequence: T1 sequence with D252A

GHRHR F338A (human) = biological target: T3, GHRHR F338A (human) (UniProt Q02643)
T3 sequence: T1 sequence with F316A

[2] = biological target: T4, truncated GHRHR that lacks the first 89 residues (human) (UniProt Q02643)
T4 sequence: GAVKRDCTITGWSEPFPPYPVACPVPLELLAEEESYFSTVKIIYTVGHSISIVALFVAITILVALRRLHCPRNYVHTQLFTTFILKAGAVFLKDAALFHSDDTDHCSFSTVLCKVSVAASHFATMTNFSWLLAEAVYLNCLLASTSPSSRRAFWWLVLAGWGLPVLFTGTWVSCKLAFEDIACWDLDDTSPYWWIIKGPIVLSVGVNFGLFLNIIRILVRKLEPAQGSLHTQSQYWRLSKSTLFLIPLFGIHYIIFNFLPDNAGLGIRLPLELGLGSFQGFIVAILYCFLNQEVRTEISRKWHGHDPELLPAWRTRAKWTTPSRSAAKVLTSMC

GHRHR L337A (human) = biological target: T5, GHRHR L337A (human) (UniProt Q02643)
T5 sequence: T1 sequence with L315A

Measured: binding

β-arrestin 1-Venus (from UniProt P49407 1-418)
binds: all assays above
